Measured values as given in US20250073249A1, “STEROID COMPOUND, AND PREPARATION METHOD THEREFOR AND USE THEREOF” (SHANGHAI INSTITUTE OF MATERIA MEDICA, CHINESE ACADEMY OF …, priority 2022, published 2025).

Test system: LNCaP cells
Experiment: In vitro LNCaP cell proliferation inhibition test (CellTiter-Glo)
Type: cell-based
Conditions: Homo sapiens, 6 days, read-out: Anti-proliferative activity IC50
Experimental: LNCaP cells were cultured in RPMI-1640 medium supplemented with 10% fetal bovine serum (FBS) at 37° C. with 5% CO2. The cells were then digested with trypsin and counted using an automated cell counter to determine cell density. The cell suspension was diluted to the desired density in growth medium. Subsequently, 100 μL of the cell suspension was seeded into 96-well plates and incubated at 37° C. with 5% CO2 for 24 hours. 10 μL of drug solution (including 3-fold serial dilutions of compounds or DMSO) was added to each well, and the plates were incubated at 37° C. with 5% CO2 for 6 days. Prior to measurement, the assay plates were equilibrated to room temperature. 40 μL of CellTiter-Glo® reagent was added to each well. The plates were mixed on an orbital shaker for 2 minutes to induce cell lysis. After incubation at room temperature for 60 minutes to stabilize the luminescence signal, the plates were read on an Envision plate reader.

IC50: 461 nM
SMILES: CNC(=O)c1ccc(N2C(=S)N(c3ccc(C#N)c(C(F)(F)F)c3)C(=O)C2(C)C)cc1F [Enzalutamide, enzalutamide, reference compound]
